According to patent US12337003B2, “Pharmaceutical compositions for combination therapy” (Intercept Pharmaceuticals, Inc., priority 2015, dated 2025):
At least one compound was matched to its structure with a doubt left.

Legend:
[1] = test system: APOE*3Leiden.CETP transgenic mice on high fat diet; experiment: Diet induced NASH in APOE*3Leiden.CETP mice, hepatic inflammation score; assay type: in vivo
Procedure: (§1) This experiment was performed to evaluate the effects of OCA and fenofibrate, alone or in combination, on the development of diet induced NASH and liver fibrosis in APOE*3Leiden.CETP transgenic mice. Hepatic gene expression profiling and subsequent pathway analysis were performed to determine whether the combination regulates novel genes not regulated by either monotherapy treatment, and/or more strongly regulates genes also impacted by the monotherapy.
Male APOE*3Leiden.CETP transgenic mice (9-21 weeks old) were obtained and housed 2-5 mice per cage. The mice were fed a high fat diet containing 24% lard and 1% (w/w) cholesterol. The run in period was 15 weeks on the high fat diet. At week 16, mice were matched based on age, body weight, plasma cholesterol and triglycerides after 4 h fasting.
• Mice (n=15) were fed a high fat diet during the run in weeks 0 to 14. Group 2: HFC control group • Mice (n=15) were fed a high fat diet from weeks 0 to 24. […]
Inflammation is a key feature of NASH. […] 9(12) and scored by quantitatively analyzing the number of inflammatory cells aggregates. In particular, the level of inflammation was evaluated by counting the number of inflammatory foci per field using a 100× magnification (view size of 3.1 mm2; average of five different fields).

[2] = test system: leukocyte extravasation signaling; experiment: Hepatic gene expression profiling (RNA sequencing, pathway analysis) in APOE*3Leiden.CETP mice; assay type: in vivo; conditions: liver mRNA
Procedure: as §1
Mice were fed a high fat chow (HFC) diet for […]. After 15 weeks on the HFC diet, HFC mice were matched into 7 groups based on age, body weight, plasma cholesterol and triglycerides after 4 h fasting. […]
Nucleic acid extraction was performed as described previously in detail (Verschuren et al., 2014). […] RNA concentration and quality was determined using the Fragment Analyzer (Advanced Analytical Technologies, USA) and the RNA 6000 Nano Lab-on-a-Chip kit and a Bioanalyzer 2100 (Agilent Technologies, Amstelveen, The Netherlands). […]
The NEBNext Ultra Directional RNA library Prep Kit for Illumina was used to process the samples. […] The quality and yield after sample preparation was measured with the Fragment Analyzer (Advanced Analytical Technologies, USA). […]
The reads were mapped to the reference sequence Mus musculus GRCm38.p3 using a short read aligner based on Burrows-Wheeler Transform. […]

CC(C)OC(=O)C(C)(C)Oc1ccc(C(=O)c2ccc(Cl)cc2)cc1 [fenofibrate]
effect on number of inflammatory cell foci ([1]; after 10 weeks, OCA 10 mg/kg and/or fenofibrate 10 mg/kg, relative to vehicle control): neither OCA (10 mg/kg) nor fenofibrate (10 mg/kg) reduced
effect on inflammation ([1]; fenofibrate 40 mg/kg/d, alone or with OCA, relative to vehicle controls): significantly reduced inflammation
regulation of genes of leukocyte extravasation signaling (leukocyte and endothelial cells) ([2]; OCA and/or low dose fenofibrate, relative to vehicle group): not evident
enrichment analysis of canonical (inflammatory) pathways ([2]; high dose fenofibrate, alone or with OCA): robust effect
